# Reference: PubChem BioAssay (Tox21)
# By UniProt entry, the sequences of proteins in these tests, tags left out.
# UniProt P14416, whole entry, looked up: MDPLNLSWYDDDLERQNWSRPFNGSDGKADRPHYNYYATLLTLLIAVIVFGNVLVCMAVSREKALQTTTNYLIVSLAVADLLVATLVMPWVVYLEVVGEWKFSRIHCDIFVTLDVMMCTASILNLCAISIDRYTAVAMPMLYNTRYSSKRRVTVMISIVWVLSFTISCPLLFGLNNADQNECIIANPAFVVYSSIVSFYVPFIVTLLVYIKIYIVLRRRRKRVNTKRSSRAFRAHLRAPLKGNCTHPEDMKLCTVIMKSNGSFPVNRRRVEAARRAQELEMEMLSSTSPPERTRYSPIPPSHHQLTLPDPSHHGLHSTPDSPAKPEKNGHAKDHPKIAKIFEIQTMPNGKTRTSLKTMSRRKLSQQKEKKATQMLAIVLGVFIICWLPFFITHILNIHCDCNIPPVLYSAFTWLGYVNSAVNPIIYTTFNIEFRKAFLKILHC
# The shares of active, inactive and inconclusive entries below differ from those in the screen. For part of these data: Potencies of inconclusive entries are doubtful fits and often do not repeat. Some compounds were tested as several samples or in several runs, with calls that do not always agree. The source made the active and inactive calls. Unless noted, the call rests on the fitted dose curve.
# What was measured:
# [1] = p53 small molecule agonists, cell-based qHTS assay: qHTS cell viability counter screen (AID 1963581); further: nearly all actives have a fitted effect of over 45% in size; further: potency means the concentration at half of the fitted maximal effect
# Procedure, shortened: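 Cytotoxicity read-out: ATP-based luminescence (CellTiter-Glo, 30 min RT) measured in the same wells as the p53 reporter assay, HCT-116 p53RE-bla cells, 16 h compound exposure at 37 C.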
# [2] = cAMP Responsive Elements (CRE) small molecule agonists, cell-based qHTS assay (AID 1963590); settings: CRE-bla HEK293T, beta-lactamase FRET ratio, 3 h; activation: at 92.4 µM (top of the series) unless noted; further: potency means the concentration at half of the fitted maximal effect; on activation: on the % scale 0 is the no-effect control and ±100 the full control effect
# Procedure, shortened: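 Beta-lactamase reporter readout: LiveBLAzer B/G FRET substrate, 2 h at room temperature, added after 3 h compound treatment of CRE-bla HEK 293T cells at 37 C/5% CO2.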
# [3] = molecular target: Beta-2 adrenergic receptor (Homo sapiens) (UniProt P07550); test: Adrenergic beta2 receptor (ADRB2) small molecule agonists, cell-based qHTS assay (AID 1963593); settings: CHO-ADRB2 cells, cAMP HTRF, 30 min; activation: at 92.4 µM (top of the series) unless noted; further: potency means the concentration at half of the fitted maximal effect;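 on activation: CHO cells stably overexpressing human ADRB2; on the % scale 0 is the no-effect control and ±100 the full control effect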
# Procedure, shortened: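 CHO cells stably over-expressing ADRB2 were plated overnight at 37C, then dosed with compounds plus a stimulation mix containing 100uM IBMX and 25uM Ro-20-1724 for 0.5hr at room temperature. cAMP was measured by HTRF competition, 1hr.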
# [4] = cAMP Responsive Elements (CRE) small molecule antagonists, cell-based qHTS assay (AID 1963591; active means well fitted inhibition curve with a large enough effect in the signal ratio in the repeat runs, not every such curve was filed as active; inconclusive means weak or mixed curves, or effect the other way; the % refers to the signal ratio; further: potency means the concentration at half of the fitted maximal effect); settings: CRE-bla HEK293T, beta-lactamase FRET ratio; activity change, negative = inhibition: at 92.4 µM (top of the series) unless noted
# Procedure, shortened: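 HEK293T CRE-bla; 18 h preincubation; compound pin-transfer; NKH477 0.25 uM final, 3 h, 37 C; LiveBLAzer FRET substrate 2 h RT.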
# [5] = molecular target: D(2) dopamine receptor (Homo sapiens) (UniProt P14416); test: Dopamine D2 receptor (DRD2) small molecule agonists, cell-based qHTS assay (AID 1963594); settings: HEK293-DRD2 cAMP HTRF, agonist mode, 30 min; activation: at 92.4 µM (top of the series) unless noted; further: nearly all actives have a fitted effect of over 35% in size; further: potency means the concentration at half of the fitted maximal effect; on activation: on the % scale 0 is the no-effect control and ±100 the full control effect
# Procedure, shortened: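 HEK293 cells stably expressing DRD2 were cultured 24 h at 37 C, then given Ro20-1724 (0.1 mM final) and compounds for 10 min at room temperature. NKH477 (200nM) was then added for 30 min. cAMP was read by HTRF.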
# [6] = molecular target: D(2) dopamine receptor (Homo sapiens) (UniProt P14416); test: Dopamine D2 receptor (DRD2) small molecule antagonists, cell-based qHTS assay (AID 1963595; active means well fitted inhibition curve with a large enough effect in the signal ratio in the repeat runs, with a control signal flat; inconclusive means weak or mixed curves, or effect the other way; the % refers to the signal ratio; further: on the % scale 0 is the no-effect control and ±100 the full control effect); settings: HEK293-DRD2 cAMP HTRF antagonist mode; activity change, negative = inhibition: at 92.4 µM (top of the series) unless noted
# Procedure, shortened: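 Human DRD2 antagonist qHTS measuring cAMP by HTRF. The cells are exposed to compound for 10 min, then to NKH477 (200 nM) and quinpirole (12 nM) for 30 min at RT, with Ro20-1724 (0.1 mM) present throughout.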
# [7] = molecular target: Beta-2 adrenergic receptor (Homo sapiens) (UniProt P07550); test: Adrenergic beta2 receptor (ADRB2) small molecule antagonists, cell-based qHTS assay (AID 1963592); settings: CHO-ADRB2 cells, isoproterenol-stimulated cAMP HTRF ratio, 0.5 h; activity change, negative = inhibition: at 92.4 µM (top of the series) unless noted; further: potency means the concentration at half of the fitted maximal effect; nearly all actives have a fitted effect of over 50% in size
# Procedure, shortened: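 Assay format: CHO-ADRB2 cells, 18-20hr seeding at 37C/5% CO2, then compound plus 1nM isoproterenol agonist mix for 0.5hr RT. Homogeneous time-resolved fluorescence cAMP detection after 1hr, expressed as 665/615 nm ratio.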
smiles,measurement,setting,value
CCCCCCCCN1CCCC1=O,Potency,[1],"inconclusive: 0.289 µM [rising, partial curve, poor fit]"
same,Potency,[2],inactive
same,Potency,[3],inactive
COc1cc(C(=O)NS(=O)(=O)c2ccccc2C)ccc1Cc1cn(C)c2ccc(NC(=O)OC3CCCC3)cc12,Potency,[1],"inconclusive: 22.3 µM [cytotoxic, single point]"
same,Potency,[2],"inconclusive: 33.5 µM [rising, single point]"
same,Potency,[4],inconclusive: 33.5 µM [single point]
same,Potency,[5],inactive
same,Potency,[6],inactive
CSC(=O)c1cccc2nnsc12,Potency,[1],"inconclusive: 10.2 µM [cytotoxic, partial curve, poor fit]"
same,Potency,[2],inactive
same,"activity change, negative = inhibition",[4],inconclusive: 20.4%
same,activation,[3],inconclusive: 8.05%
same,Potency,[5],"inconclusive: 27.3 µM [falling, single point]"
NCCCN(CCO)CCO,Potency,[1],inactive
same,Potency,[2],inactive
same,Potency,[7],active: 217 nM
same,Potency,[3],inactive
CNNCc1ccc(C(=O)NC(C)C)cc1,Potency,[1],"inconclusive: 0.363 µM [cytotoxic, single point]"
same,Potency,[2],"inconclusive: 68.6 µM [rising, partial curve, poor fit]"
same,activation,[3],inconclusive: -7.6%
O=C(O)CCC(=O)O,Potency,[1],active: 42.1 µM
same,Potency,[2],inactive
same,Potency,[3],"inconclusive: 1.09 µM [inhibitor, single point]"
same,activation,[3],inconclusive: -32.9% [at 42.5 µM]
C[C@]12C=CC(=O)C=C1[C@@H](F)C[C@@H]1[C@@H]2[C@@H](O)C[C@@]2(C)[C@H]1CC[C@]2(O)C(=O)CO,Potency,[1],inactive
same,Potency,[2],"inconclusive: 0.0067 µM [falling, full curve, poor fit]"
same,Potency,[3],inactive

# Pulled one by one from above, 2 records:
smiles,measurement,setting,value
CSC(=O)c1cccc2nnsc12,Potency,[5],"inconclusive: 27.3 µM [falling, single point]"
CNNCc1ccc(C(=O)NC(C)C)cc1,activation,[3],inconclusive: -7.6%
